Measurements taken from patent US9403882B2, “Sulfation of Wnt pathway proteins” (priority 2010, dated 2016).
Results are given in words; binding and its absence hold for the method and conditions named. Some results given as binding are weak or reduced against the parent protein; the word gives no strength.

Sequences of proteins named here, by UniProt entry; tags and fusion partners are left off. Residues count along the entry.
UniProt O75197, residues 32-643: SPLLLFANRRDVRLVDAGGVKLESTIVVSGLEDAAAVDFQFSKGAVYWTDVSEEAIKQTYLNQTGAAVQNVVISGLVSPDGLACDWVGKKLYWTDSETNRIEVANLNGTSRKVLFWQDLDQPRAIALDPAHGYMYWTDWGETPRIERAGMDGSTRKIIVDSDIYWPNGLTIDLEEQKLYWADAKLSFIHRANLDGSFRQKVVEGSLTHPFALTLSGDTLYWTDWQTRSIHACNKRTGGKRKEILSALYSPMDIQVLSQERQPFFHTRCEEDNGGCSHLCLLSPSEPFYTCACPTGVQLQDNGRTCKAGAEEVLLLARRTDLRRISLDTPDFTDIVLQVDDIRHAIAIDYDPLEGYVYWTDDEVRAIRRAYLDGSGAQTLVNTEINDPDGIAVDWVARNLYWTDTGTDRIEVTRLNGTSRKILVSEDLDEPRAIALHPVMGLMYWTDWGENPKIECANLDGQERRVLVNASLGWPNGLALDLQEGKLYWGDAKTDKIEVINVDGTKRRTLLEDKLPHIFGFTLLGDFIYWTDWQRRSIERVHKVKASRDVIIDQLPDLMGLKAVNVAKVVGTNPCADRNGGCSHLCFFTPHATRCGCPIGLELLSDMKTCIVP
UniProt Q9BQB4, residues 24-213: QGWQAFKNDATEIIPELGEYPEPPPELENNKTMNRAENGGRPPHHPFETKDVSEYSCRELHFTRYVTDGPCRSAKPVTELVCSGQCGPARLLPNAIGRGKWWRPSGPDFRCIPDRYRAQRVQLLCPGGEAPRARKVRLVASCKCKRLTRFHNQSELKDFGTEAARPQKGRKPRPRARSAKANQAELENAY
UniProt Q99P68, residues 24-211: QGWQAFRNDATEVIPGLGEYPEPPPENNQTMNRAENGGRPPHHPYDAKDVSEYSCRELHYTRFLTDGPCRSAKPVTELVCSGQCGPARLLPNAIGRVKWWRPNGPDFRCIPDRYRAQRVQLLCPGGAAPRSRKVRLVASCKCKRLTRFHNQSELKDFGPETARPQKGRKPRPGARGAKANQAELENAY

Target: LRP5R1/2-AP (LRP5 extracellular domains 1 and 2 fused to alkaline phosphatase) (UniProt O75197)
Assay: plate-coated sclerostin, LRP5R1/2AP conditioned medium, alkaline phosphatase luminescence

binding | Substance
binds | Chlorate-treated human sclerostin subsequently treated with TPST-1 and PAPS ("In vitro modified") (from UniProt Q9BQB4 24-213) (ligand)
binds | Human sclerostin (R&D Systems) treated in vitro with human TPST1 and PAPS (Example 1) (from UniProt Q9BQB4 24-213) (ligand)
binds | Human sclerostin produced in High Five insect cells treated with 1 mM chlorate ("Unmodified", unsulfated) (from UniProt Q9BQB4 24-213) (ligand)
binds | Human sclerostin produced in High Five insect cells without chlorate ("Normal", sulfated) (from UniProt Q9BQB4 24-213) (ligand)
binds | Mouse sclerostin treated in vitro with TPST (from UniProt Q99P68 24-211) (ligand)
binds | Mouse sclerostin, untreated (from UniProt Q99P68 24-211) (ligand)
